PubChem BioAssay AID1159578 – Peter MacCallum Cancer Centre, 2015
Shown is an unselected part of about 18,000 deposited reagents. Over the whole deposit, about 1,030 (5.7%) were called active. 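Inactive calls also include pools with fewer than 3300 nuclei, whose migration was not assessed.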 Raw values vary from plate to plate and are shown uncorrected. Entries without a mark were called inactive. The numbers tell different reagents against one gene apart.

Assay: 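Genome-wide hunt for genes controlling movement of lymphatic endothelial cells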 (primary screen)
System: human lymphatic endothelial cells
Knock-down reagent: siRNA pool against human genes, 40 nM
Timing: 48 h after transfection
Read-out: 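High-content imaging of dye-stained cells in a scratch assay measures filled wound area and nuclei per well; duplicate means given as ratio to mock and robust z-score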
Reading the numbers: migration robust z-score: higher = faster migration into the scratch; migration relative to mock: higher = more scratch area covered than mock; nuclei per well: higher = more cells in the well
Active means: 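Pools averaging fewer than 3300 nuclei are never called; remaining pools count as changed when migration robust z lies outside -2 to 2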
Calls: active = migration changed; inactive = no migration change, or too few cells

gene	pool no.	migration robust z-score	migration class with cell-count check	migration relative to mock	nuclei per well, duplicate mean
CSAG2 (CSAG family member 2)	1	-1.34	migration z between -2 and 2; enough cells	0.54	6443
CSAG2 (CSAG family member 2)	2	-0.9	migration z between -2 and 2; enough cells	0.65	4676
TASL (TLR adaptor interacting with endolysosomal SLC15A4)	1	0.65	migration z between -2 and 2; enough cells	1.05	6174
RASSF6 (Ras association domain family member 6)	1	0.24	migration z between -2 and 2; enough cells	0.95	4917
FAT4 (FAT atypical cadherin 4)	1	-0.18	migration z between -2 and 2; enough cells	0.84	4720
IWS1 (interacts with SUPT6H, CTD assembly factor 1)	1	-0.19	migration z between -2 and 2; enough cells	0.83	6548
UBL4A (ubiquitin like 4A)	1	2.23 (active)	migration z above 2; enough cells	1.23	5711
SP5 (Sp5 transcription factor)	1	0.34	migration z between -2 and 2; enough cells	0.98	5378
BMP1 (bone morphogenetic protein 1)	1	0.67	migration z between -2 and 2; enough cells	0.93	5897

Reformatted: entries from further up
gene,pool no.,migration robust z-score,migration class with cell-count check,migration relative to mock,"nuclei per well, duplicate mean"
CSAG2 (CSAG family member 2),2,-0.9,migration z between -2 and 2; enough cells,0.65,4676
TASL (TLR adaptor interacting with endolysosomal SLC15A4),1,0.65,migration z between -2 and 2; enough cells,1.05,6174

Continued.
gene	pool no.	migration robust z-score	migration class with cell-count check	migration relative to mock	nuclei per well, duplicate mean
DRC1 (dynein regulatory complex subunit 1)	1	-0.59	migration z between -2 and 2; enough cells	0.74	5578
CRELD2 (CRELD disulfide isomerase 2)	1	0.66	migration z between -2 and 2; enough cells	1.06	5764
NDUFS3 (NADH:ubiquinone oxidoreductase core subunit S3)	1	-1.5	migration z between -2 and 2; enough cells	0.52	4166
LYZL6 (lysozyme like 6)	1	-1.12	migration z between -2 and 2; enough cells	0.59	4603
TMTC3 (transmembrane O-mannosyltransferase targeting cadherins 3)	1	1.54	migration z between -2 and 2; enough cells	1.29	7018
NRM (nurim)	1	0.86	migration z between -2 and 2; enough cells	1.11	5956
POLL (DNA polymerase lambda)	1	-1.94	migration z between -2 and 2; enough cells	0.43	4293
TRAF5 (TNF receptor associated factor 5)	1	1.25	migration z between -2 and 2; enough cells	1.04	6478
CD300LG (CD300 molecule like family member g)	1	0.08	migration z between -2 and 2; enough cells	0.91	5291
PYCR3 (pyrroline-5-carboxylate reductase 3)	1	-0.42	migration z between -2 and 2; enough cells	0.73	4561
DGKI (diacylglycerol kinase iota)	1	-0.29	migration z between -2 and 2; enough cells	0.75	5069
BCL2 (BCL2 apoptosis regulator)	1	1.3	migration z between -2 and 2; enough cells	1.06	3885
CD40 (CD40 molecule)	1	0.96	migration z between -2 and 2; enough cells	0.99	5662
CHRNA4 (cholinergic receptor nicotinic alpha 4 subunit)	1	-0.16	migration z between -2 and 2; enough cells	0.78	5688
